Test results taken from publication PMC1470463.
These are yes or no findings as the source states them, for the method shown. For some assays here: Binding calls can cover weak binding; strength is not graded here. Where a sequence is shown, tags or fusion partners need not be part of it.

Key:
[1] = target: T1, Bxb1 integrase (gpInt) (mycobacteriophage Bxb1) (UniProt Q9B086); assay: native gel or EMSA; α-His antibody supershift of reactions with gpInt, gp47 and attL or attR DNA; antibody added to the premixed sample or preincubated with gp47 for 30 min; 5% native PAGE; both purified
T1 sequence: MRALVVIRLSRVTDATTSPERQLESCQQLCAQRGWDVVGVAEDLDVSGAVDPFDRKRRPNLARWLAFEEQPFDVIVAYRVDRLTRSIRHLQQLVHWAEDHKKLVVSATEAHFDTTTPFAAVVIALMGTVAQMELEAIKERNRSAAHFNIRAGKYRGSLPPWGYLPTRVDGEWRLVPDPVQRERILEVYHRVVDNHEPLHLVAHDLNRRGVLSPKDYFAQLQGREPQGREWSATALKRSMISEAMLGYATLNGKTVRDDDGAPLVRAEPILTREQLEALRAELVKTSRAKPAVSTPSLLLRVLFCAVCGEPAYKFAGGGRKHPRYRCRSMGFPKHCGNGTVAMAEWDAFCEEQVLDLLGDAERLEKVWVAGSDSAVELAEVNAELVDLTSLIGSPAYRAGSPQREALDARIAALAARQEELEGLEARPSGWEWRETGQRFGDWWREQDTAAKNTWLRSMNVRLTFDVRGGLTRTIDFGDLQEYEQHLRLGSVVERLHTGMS

[2] = target: T1, Bxb1 integrase (gpInt) (mycobacteriophage Bxb1); assay: condition: only with gpInt on ~350-bp attL or attR DNA; gp47 up to 3.56 μM; native gel or EMSA; as a1 but with ~350-bp attL or attR DNA; gpInt 0.072 μM, gp47 0.45-3.56 μM; both purified
[3] = target: T1, Bxb1 integrase (gpInt) (mycobacteriophage Bxb1); assay: native gel or EMSA; gpInt and gp47 with a smaller attB substrate (60 bp) (Figure S4); both purified
[4] = target: T1, Bxb1 integrase (gpInt) (mycobacteriophage Bxb1); assay: native gel or EMSA; radiolabelled attP or attB DNA (~300-350 bp) with gpInt 0.072 μM and gp47 0.45-3.56 μM; 20 mM Tris-HCl pH 7.5, 10 mM EDTA, 25 mM NaCl, 10 mM spermidine, 1 mM DTT, calf thymus DNA, 25 °C 1 h; 5% native PAGE at 10 °C; gp47 in Complex II confirmed by α-His supershift; gp47 only partially purified (~75%); both purified
[5] = target: T1, Bxb1 integrase (gpInt) (mycobacteriophage Bxb1); assay: native gel or EMSA; gpInt and high concentrations of gp47 with shorter (60 bp) attL or attR DNA substrates (Figure S4); both purified

Bxb1 gp47 with a His6 tag at the N-terminus (mycobacteriophage Bxb1)
binding [1]: binds weakly | binding [2]: no binding | binding [3]: binds | binding [4]: binds | binding [5]: binds weakly
